These are yes or no findings as the source states them, for the method shown. For some assays here: In cells and extracts the contact can be indirect. Some results given as binding are weak or reduced against the parent protein; the word gives no strength. For some assays here: Where a sequence is shown, tags or fusion partners need not be part of it. Each block holds one molecule with its values, some of them ahead of it.
Tests used:
[1] = target: T1, p105(369-896) (Homo sapiens (Human)) (UniProt P19838); test: co-expression in Sf9 cells, purification of the complex from lysates
T1 sequence: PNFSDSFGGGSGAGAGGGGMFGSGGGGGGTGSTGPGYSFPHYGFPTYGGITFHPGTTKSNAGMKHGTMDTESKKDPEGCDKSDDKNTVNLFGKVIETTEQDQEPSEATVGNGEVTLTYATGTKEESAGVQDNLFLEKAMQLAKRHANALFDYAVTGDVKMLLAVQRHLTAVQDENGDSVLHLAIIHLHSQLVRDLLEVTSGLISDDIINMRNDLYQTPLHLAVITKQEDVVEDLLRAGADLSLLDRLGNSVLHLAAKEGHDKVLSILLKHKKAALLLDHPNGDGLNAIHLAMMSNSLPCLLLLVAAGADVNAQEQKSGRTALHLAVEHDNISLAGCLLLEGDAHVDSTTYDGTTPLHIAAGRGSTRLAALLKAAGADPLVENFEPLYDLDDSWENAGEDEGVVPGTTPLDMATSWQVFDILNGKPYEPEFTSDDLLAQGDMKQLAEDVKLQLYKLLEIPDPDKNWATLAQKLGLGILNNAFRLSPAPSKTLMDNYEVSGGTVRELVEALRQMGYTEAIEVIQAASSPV

[2] = target: T1, p105(369-896) (Homo sapiens (Human)); test: anti-Flag purification of the co-expressed complex from Sf9 cells
[3] = target: T2, p105(472-896) (Homo sapiens (Human)) (UniProt P19838); test: co-expression in Sf9 cells, purification of the complex from lysates
T2 sequence: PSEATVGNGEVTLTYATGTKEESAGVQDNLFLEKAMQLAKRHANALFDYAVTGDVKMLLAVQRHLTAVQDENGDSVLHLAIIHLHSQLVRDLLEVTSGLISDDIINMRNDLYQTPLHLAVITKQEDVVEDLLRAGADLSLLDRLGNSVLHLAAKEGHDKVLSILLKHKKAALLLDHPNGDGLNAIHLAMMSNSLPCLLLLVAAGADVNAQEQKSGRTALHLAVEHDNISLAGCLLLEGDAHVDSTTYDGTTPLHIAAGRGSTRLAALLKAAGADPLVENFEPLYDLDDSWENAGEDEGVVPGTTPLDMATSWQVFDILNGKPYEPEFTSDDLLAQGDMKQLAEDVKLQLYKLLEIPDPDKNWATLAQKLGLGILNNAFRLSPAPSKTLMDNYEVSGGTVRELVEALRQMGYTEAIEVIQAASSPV

[4] = target: T3, p105 C-terminus (residues 459 to 969) (Homo sapiens (Human)) (UniProt P19838); test: yeast two-hybrid assay
T3 sequence: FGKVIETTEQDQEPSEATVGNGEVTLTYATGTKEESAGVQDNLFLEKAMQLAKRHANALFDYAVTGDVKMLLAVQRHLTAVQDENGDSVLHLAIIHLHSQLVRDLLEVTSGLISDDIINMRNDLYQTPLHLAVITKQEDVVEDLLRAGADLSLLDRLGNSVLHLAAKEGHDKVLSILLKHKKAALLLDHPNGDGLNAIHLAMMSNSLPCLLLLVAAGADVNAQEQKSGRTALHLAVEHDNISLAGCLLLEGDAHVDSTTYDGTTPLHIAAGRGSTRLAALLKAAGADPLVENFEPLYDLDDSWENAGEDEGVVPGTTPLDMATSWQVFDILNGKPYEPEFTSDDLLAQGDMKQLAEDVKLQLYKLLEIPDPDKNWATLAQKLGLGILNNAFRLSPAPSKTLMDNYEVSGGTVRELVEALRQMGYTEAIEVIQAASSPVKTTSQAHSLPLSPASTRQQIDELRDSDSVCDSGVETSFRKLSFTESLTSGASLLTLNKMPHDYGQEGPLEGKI

[5] = target: HA-p105 (Homo sapiens (Human)) (UniProt P19838); test: immunoprecipitation and Western blot from co-transfected 293 cells
[6] = target: endogenous NF-κB1 p105 (HeLa, Jurkat and 293 cells) (UniProt P19838); test: immunoprecipitation from transiently transfected 293 cells
[7] = target: HA-p105 (Homo sapiens (Human)) (UniProt P19838); test: co-expression in 293 cells, anti-Myc immunoprecipitation
[8] = target: HA-p105 (Homo sapiens (Human)) (UniProt P19838); test: anti-HA immunoprecipitation and Western blot from co-transfected 293 cells
[9] = target: myc-p105 (Homo sapiens (Human)) (UniProt P19838); test: anti-myc immunoprecipitation from pulse-labelled co-transfected 3T3 cells (FIG. 6A)
[10] = target: HA-p105L842A (Homo sapiens (Human)) (UniProt P19838); test: anti-HA co-immunoprecipitation from co-transfected 293 cells
[11] = target: HA-p105 (Homo sapiens (Human)) (UniProt P19838); test: as above
[12] = target: HA-p105Δ498-541 (Homo sapiens (Human)) (UniProt P19838); test: as above
[13] = target: HA-p105ΔDD (Homo sapiens (Human)) (UniProt P19838); test: as above
[14] = target: NF-κB1 p105 (Homo sapiens (Human)) (UniProt P19838); test: co-immunoprecipitation of in vitro translated 35S-labelled proteins
[15] = target: HA-p105 (1-892) (Homo sapiens (Human)) (UniProt P19838); test: immunoprecipitation and Western blot from co-transfected 293 cells
[16] = target: NF-κB1 p105 (Homo sapiens (Human)) (UniProt P19838); test: co-immunoprecipitation of in vitro translated proteins
[17] = target: biotinylated TPL-2398-467 peptide; test: surface plasmon resonance (BIAcore), biotinylated peptide on streptavidin chip, p105 protein injected
[18] = target: TPL-2 (Homo sapiens (Human)) (UniProt P41279); test: GST pull-down of in vitro translated 35S-labelled TPL-2
[19] = target: Myc-TPL-2 (Homo sapiens (Human)) (UniProt P41279); test: incubation of Myc-TPL-2 immunoprecipitates with recombinant protein
[20] = target: T4, p105(444-896) (Homo sapiens (Human)) (UniProt P19838); test: co-expression in HEK293 cells, isolation of the complex from lysates
T4 sequence: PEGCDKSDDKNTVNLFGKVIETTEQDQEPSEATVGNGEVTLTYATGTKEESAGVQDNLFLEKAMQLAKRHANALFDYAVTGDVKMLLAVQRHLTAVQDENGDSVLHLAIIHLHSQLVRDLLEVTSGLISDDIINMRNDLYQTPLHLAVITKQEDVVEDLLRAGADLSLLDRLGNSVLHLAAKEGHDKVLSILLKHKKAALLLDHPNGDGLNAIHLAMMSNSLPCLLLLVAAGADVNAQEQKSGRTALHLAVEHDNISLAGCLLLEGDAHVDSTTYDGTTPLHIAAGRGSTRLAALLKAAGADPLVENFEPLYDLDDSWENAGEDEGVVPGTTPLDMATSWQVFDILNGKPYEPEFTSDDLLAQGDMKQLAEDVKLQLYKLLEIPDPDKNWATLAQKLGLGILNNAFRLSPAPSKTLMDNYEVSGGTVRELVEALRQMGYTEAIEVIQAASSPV

[21] = target: T5, p105(400-896) (Homo sapiens (Human)) (UniProt P19838); test: as above
T5 sequence: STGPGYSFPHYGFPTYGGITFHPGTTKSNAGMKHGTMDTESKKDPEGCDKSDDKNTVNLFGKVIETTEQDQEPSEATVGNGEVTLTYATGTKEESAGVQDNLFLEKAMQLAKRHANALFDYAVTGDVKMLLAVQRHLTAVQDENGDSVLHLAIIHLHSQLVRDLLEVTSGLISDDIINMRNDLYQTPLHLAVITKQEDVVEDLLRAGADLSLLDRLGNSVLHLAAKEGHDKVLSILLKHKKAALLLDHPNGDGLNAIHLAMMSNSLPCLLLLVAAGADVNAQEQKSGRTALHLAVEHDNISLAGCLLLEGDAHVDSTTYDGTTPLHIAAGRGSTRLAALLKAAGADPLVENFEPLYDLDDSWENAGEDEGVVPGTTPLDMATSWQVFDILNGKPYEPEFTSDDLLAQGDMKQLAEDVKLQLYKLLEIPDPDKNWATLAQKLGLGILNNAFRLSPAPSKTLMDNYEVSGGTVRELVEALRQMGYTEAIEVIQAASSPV

Molecule: COT(1-467, M30V, D253N) (from UniProt P41279 1-467)
binding [1]: binds

Molecule: COT(30-467, D253N) (from UniProt P41279 30-467)
binding [2]: binds
binding [3]: binds
binding [1]: binds

Molecule: Myc-TPL-2 (from UniProt P41279 1-467)
binding [6]: binds

Molecule: Myc-TPL-2ΔC (from UniProt P41279 1-397)
binding [7]: binds

Molecule: Q104 TPL-2ΔC (from UniProt P41279 104-397)
binding [5]: binds

Molecule: TPL-2 (from UniProt P41279 1-467)
binding [8]: binds
binding [9]: binds
binding [10]: binds
binding [11]: binds
binding [12]: binds
binding [13]: binds
binding [14]: binds

Molecule: recombinant p105 1-969 (from UniProt P19838 1-968)
binding [17]: binds

B2: recombinant p105498-969 protein (other)
chain: QDNLFLEKAMQLAKRHANALFDYAVTGDVKMLLAVQRHLTAVQDENGDSVLHLAIIHLHSQLVRDLLEVTSGLISDDIINMRNDLYQTPLHLAVITKQEDVVEDLLRAGADLSLLDRLGNSVLHLAAKEGHDKVLSILLKHKKAALLLDHPNGDGLNAIHLAMMSNSLPCLLLLVAAGADVNAQEQKSGRTALHLAVEHDNISLAGCLLLEGDAHVDSTTYDGTTPLHIAAGRGSTRLAALLKAAGADPLVENFEPLYDLDDSWENAGEDEGVVPGTTPLDMATSWQVFDILNGKPYEPEFTSDDLLAQGDMKQLAEDVKLQLYKLLEIPDPDKNWATLAQKLGLGILNNAFRLSPAPSKTLMDNYEVSGGTVRELVEALRQMGYTEAIEVIQAASSPVKTTSQAHSLPLSPASTRQQIDELRDSDSVCDSGVETSFRKLSFTESLTSGASLLTLNKMPHDYGQEGPLEGKI
binding [19]: binds
binding [17]: binds

B4: recombinant p105 497-782 (protein)
chain: VQDNLFLEKAMQLAKRHANALFDYAVTGDVKMLLAVQRHLTAVQDENGDSVLHLAIIHLHSQLVRDLLEVTSGLISDDIINMRNDLYQTPLHLAVITKQEDVVEDLLRAGADLSLLDRLGNSVLHLAAKEGHDKVLSILLKHKKAALLLDHPNGDGLNAIHLAMMSNSLPCLLLLVAAGADVNAQEQKSGRTALHLAVEHDNISLAGCLLLEGDAHVDSTTYDGTTPLHIAAGRGSTRLAALLKAAGADPLVENFEPLYDLDDSWENAGEDEGVVPGTTPLDMATS
binding [17]: binds

Further lines, results first:

binding [4]: binds
Molecule: GAL4 fusion of just the C-terminal 92 amino acids of TPL-2 (from UniProt P41279 376-467)

binding [5]: binds
Molecule: M30 TPL-2ΔC (from UniProt P41279 30-397)

binding [5]: binds
Molecule: P131 TPL-2ΔC (from UniProt P41279 131-397)

binding [8]: binds
binding [15]: binds
binding [5]: binds
binding [16]: binds
Molecule: TPL-2ΔC (from UniProt P41279 1-397)

binding [18]: binds
B1: recombinant p105808-892 protein (p105 DD) (other)
chain: DMKQLAEDVKLQLYKLLEIPDPDKNWATLAQKLGLGILNNAFRLSPAPSKTLMDNYEVSGGTVRELVEALRQMGYTEAIEVIQAA

binding [17]: binds
B3: recombinant p105 498-806 (protein)
chain: QDNLFLEKAMQLAKRHANALFDYAVTGDVKMLLAVQRHLTAVQDENGDSVLHLAIIHLHSQLVRDLLEVTSGLISDDIINMRNDLYQTPLHLAVITKQEDVVEDLLRAGADLSLLDRLGNSVLHLAAKEGHDKVLSILLKHKKAALLLDHPNGDGLNAIHLAMMSNSLPCLLLLVAAGADVNAQEQKSGRTALHLAVEHDNISLAGCLLLEGDAHVDSTTYDGTTPLHIAAGRGSTRLAALLKAAGADPLVENFEPLYDLDDSWENAGEDEGVVPGTTPLDMATSWQVFDILNGKPYEPEFTSDDLLAQ

binding [20]: binds
binding [21]: binds
B5: Flag-COT(30-467) (enzyme, not shown: small tags and cut ends)
chain: MENLYASEEPAVYEPSLMTMCQDSNQNDERSKSLLLSGQEVPWLSSVRYGTVEDLLAFANHISNTAKHFYGQRPQESGILLNMVITPQNGRYQIDSDVLLIPWKLTYRNIGSDFIPRGAFGKVYLAQDIKTKKRMACKLIPVDQFKPSDVEIQACFRHENIAELYGAVLWGETVHLFMEAGEGGSVLEKLESCGPMREFEIIWVTKHVLKGLDFLHSKKVIHHDIKPSNIVFMSTKAVLVDFGLSVQMTEDVYFPKDLRGTEIYMSPEVILCRGHSTKADIYSLGATLIHMQTGTPPWVKRYPRSAYPSYLYIIHKQAPPLEDIADDCSPGMRELIEASLERNPNHRPRAADLLKHEALNPPREDQPRCTSLDSALLERKRLLSRKELELPENIADSSCTGSTEESEMLKRQRSLYIDLGALAGYFNLVRGPPTLEYG
